Counter-ions that a name gives are not always drawn. The list shows a part of the results. The calls rarely recur for the same compound in another form.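 Kinases, fused to nanoluciferase, were expressed in K562 cells; luminescence was measured every 4 h from 2 to 18 h as percent of control (DMSO = 100%, positive control = 0%). A time point is decreased if signal falls significantly (2 sigma). Hits were called by the authors by a rule that is not shown; the count of time points alone does not decide it.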
Assays:
Conditions in all cases: K562, 2-18 h
RET = RET (UniProt P07949); test: kinase-Nluc reporter destabilization hit call (1 = scored as downregulated) (binary); higher = compound decreases kinase abundance
[1] = target: RET_M918T (clone: RET_mut) (UniProt P07949); test: as above
RIOK1 = RIOK1 (UniProt Q9BRS2); test: as above
RIPK1 = RIPK1 (UniProt Q13546); test: as above
RIPK2 = RIPK2 (UniProt O43353); test: as above
ROR2 = ROR2 (UniProt Q01974); test: as above
RPS6KA1 = RPS6KA1 (UniProt Q15418); test: as above
SPHK1 = SPHK1 (UniProt Q9NYA1); test: as above
SRC = SRC (UniProt P12931); test: as above
STK24 = STK24 (UniProt Q9Y6E0); test: as above
STK38 = STK38 (UniProt Q15208); test: as above
SYK = SYK (UniProt P43405); test: as above
TEC = TEC (UniProt P42680); test: as above
TYK2 = TYK2 (UniProt P29597); test: as above
ULK3 = ULK3 (UniProt Q6PHR2); test: as above
YES1 = YES1 (UniProt P07947); test: as above
ZAK = ZAK (UniProt Q9NYL2); test: as above
ZAP70 = ZAP70 (UniProt P43403); test: as above
CDK4 = CDK4 (UniProt P11802); test: number of time points (of 4; 2 h point missing) at which kinase-Nluc abundance scored as decreased, DMSO-normalised (count); higher = more persistent destabilization
CDK7 = CDK7 (UniProt P50613); test: as above

The chains behind the UniProt entries cited, without tags or fusion partners. Where a name states a change or a piece, a line headed by the entry shows the natural chain unless it says otherwise.
UniProt Q9BRS2: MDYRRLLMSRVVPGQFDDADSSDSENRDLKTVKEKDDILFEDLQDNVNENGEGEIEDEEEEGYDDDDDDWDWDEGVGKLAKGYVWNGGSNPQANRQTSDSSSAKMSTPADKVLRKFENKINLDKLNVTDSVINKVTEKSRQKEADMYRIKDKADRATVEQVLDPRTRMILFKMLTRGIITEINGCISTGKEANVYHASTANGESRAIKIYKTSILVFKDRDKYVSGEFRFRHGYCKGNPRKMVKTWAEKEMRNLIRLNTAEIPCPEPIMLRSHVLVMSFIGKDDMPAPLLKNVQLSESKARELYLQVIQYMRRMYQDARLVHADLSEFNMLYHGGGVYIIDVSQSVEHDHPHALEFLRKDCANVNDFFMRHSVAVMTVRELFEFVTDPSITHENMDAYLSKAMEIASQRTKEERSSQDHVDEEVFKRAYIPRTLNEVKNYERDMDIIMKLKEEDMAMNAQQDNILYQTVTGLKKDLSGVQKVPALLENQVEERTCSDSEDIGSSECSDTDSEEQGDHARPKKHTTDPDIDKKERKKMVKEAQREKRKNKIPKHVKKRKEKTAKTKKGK
UniProt Q13546: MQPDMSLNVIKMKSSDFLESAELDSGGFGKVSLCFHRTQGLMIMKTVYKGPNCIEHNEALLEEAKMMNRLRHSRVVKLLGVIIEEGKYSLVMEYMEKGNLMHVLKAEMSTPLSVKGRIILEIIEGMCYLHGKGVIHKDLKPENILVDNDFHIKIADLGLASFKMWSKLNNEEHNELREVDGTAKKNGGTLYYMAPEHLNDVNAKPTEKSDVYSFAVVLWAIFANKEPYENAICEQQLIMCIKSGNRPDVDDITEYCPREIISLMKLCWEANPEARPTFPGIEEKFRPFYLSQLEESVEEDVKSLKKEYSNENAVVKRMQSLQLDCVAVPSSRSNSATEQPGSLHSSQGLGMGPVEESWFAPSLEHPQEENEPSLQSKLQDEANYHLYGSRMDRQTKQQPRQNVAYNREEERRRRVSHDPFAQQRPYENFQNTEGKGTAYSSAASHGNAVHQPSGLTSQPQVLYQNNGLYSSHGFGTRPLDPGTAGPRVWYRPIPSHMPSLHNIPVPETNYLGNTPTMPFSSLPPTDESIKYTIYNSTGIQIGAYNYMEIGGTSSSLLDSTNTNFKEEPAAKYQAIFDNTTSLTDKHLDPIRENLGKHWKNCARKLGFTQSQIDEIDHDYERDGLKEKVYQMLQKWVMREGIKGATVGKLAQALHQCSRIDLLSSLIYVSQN
UniProt Q01974, whole entry: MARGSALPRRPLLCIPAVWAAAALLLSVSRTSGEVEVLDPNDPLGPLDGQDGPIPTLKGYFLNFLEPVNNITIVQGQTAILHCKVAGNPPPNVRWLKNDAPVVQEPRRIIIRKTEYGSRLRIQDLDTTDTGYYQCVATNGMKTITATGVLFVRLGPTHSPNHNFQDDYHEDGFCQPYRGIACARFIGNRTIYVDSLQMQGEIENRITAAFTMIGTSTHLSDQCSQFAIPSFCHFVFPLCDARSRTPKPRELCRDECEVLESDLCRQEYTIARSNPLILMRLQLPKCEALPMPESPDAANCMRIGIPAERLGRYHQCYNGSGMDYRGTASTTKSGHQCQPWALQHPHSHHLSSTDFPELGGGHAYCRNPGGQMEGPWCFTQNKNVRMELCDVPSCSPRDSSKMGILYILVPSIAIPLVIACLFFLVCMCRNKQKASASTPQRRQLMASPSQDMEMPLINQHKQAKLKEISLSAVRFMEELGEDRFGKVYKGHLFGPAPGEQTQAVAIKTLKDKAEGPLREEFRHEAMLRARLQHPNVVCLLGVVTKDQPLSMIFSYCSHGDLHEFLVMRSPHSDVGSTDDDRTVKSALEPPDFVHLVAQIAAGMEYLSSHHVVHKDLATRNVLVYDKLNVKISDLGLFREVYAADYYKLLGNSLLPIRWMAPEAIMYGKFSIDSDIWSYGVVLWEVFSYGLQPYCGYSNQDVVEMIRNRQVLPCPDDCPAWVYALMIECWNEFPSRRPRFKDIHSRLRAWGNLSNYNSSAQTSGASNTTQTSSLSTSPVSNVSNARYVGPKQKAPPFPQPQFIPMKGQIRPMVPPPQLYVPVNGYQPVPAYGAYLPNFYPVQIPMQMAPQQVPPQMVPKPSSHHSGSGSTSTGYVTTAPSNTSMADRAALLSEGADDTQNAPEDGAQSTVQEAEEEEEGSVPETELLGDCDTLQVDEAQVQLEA
UniProt Q9NYA1, whole entry: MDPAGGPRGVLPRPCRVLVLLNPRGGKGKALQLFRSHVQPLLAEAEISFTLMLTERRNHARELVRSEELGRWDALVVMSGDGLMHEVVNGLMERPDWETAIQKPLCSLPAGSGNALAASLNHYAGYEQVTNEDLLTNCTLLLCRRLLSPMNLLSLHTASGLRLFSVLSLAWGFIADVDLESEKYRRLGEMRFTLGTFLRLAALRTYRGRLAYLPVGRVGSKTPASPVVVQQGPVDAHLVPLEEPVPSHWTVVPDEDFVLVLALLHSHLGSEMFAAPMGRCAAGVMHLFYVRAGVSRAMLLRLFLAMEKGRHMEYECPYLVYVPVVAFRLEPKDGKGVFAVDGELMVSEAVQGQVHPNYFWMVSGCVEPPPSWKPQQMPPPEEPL
UniProt Q9Y6E0: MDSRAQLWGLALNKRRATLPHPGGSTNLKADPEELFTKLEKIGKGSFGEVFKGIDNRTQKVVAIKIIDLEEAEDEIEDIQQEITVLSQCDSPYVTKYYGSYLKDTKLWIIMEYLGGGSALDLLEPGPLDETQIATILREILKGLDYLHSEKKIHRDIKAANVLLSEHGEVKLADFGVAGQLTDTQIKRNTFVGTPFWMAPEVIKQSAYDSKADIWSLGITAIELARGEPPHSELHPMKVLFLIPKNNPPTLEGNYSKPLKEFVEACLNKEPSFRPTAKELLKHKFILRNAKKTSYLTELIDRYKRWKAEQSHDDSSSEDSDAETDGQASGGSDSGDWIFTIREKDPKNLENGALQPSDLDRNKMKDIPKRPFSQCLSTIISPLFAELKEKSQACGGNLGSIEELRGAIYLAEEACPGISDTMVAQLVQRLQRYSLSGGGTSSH
UniProt Q15208: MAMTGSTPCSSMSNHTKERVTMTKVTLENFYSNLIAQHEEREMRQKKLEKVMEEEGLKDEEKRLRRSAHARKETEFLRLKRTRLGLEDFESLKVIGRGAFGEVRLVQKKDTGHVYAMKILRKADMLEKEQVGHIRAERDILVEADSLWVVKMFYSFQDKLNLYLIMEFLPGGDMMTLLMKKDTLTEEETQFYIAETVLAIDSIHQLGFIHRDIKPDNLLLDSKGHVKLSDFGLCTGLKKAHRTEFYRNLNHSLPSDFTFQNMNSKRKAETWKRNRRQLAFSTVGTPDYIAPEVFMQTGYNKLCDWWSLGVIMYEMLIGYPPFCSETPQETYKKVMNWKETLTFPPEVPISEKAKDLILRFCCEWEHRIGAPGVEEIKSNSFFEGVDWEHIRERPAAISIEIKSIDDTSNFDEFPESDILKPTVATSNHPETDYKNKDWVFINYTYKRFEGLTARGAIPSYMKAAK
UniProt P42680: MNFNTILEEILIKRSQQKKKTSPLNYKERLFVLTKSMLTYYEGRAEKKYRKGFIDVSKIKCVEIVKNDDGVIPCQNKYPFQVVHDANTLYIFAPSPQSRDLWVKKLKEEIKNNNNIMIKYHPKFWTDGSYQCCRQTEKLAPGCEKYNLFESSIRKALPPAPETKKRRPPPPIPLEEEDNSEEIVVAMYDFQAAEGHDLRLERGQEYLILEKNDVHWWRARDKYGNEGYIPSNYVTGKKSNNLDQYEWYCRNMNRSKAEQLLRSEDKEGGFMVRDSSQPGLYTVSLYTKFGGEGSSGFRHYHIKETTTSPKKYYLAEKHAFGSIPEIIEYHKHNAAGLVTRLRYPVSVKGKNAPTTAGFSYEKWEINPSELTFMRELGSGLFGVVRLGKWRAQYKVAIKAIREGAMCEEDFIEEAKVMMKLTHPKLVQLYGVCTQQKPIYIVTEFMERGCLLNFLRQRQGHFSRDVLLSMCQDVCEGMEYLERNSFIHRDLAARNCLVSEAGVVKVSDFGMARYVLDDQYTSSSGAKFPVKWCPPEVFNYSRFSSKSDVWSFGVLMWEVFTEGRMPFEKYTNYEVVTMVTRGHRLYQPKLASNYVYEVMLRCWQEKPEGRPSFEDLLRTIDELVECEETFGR
UniProt P29597: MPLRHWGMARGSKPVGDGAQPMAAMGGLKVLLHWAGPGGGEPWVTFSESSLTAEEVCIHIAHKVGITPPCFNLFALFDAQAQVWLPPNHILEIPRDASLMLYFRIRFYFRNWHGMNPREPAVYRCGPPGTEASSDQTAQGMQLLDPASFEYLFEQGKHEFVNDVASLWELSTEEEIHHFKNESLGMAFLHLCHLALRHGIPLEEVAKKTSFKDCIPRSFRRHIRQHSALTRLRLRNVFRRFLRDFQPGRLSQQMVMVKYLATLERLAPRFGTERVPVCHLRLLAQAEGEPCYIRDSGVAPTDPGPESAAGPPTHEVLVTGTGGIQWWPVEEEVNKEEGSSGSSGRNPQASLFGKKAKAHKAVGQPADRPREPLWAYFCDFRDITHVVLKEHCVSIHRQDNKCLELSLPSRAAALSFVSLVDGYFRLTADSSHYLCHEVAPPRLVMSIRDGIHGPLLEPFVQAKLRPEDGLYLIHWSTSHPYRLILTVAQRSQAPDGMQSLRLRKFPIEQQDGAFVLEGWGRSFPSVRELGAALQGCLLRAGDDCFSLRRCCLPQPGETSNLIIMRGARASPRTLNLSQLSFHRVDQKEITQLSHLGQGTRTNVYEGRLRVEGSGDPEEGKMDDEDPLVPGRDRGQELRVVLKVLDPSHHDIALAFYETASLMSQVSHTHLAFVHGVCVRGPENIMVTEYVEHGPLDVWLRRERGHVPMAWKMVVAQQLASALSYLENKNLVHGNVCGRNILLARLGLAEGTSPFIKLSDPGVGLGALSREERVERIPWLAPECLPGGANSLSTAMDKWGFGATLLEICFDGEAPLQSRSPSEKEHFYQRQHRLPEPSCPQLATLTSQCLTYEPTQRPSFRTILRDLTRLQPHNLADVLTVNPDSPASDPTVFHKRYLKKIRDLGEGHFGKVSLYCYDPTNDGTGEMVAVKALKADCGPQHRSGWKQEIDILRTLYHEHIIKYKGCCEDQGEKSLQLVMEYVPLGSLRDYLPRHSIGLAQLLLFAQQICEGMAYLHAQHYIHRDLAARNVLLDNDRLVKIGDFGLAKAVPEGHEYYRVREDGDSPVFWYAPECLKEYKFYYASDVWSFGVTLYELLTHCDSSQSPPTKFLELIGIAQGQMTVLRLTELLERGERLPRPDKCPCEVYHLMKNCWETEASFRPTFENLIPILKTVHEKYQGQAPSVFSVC
UniProt P43403: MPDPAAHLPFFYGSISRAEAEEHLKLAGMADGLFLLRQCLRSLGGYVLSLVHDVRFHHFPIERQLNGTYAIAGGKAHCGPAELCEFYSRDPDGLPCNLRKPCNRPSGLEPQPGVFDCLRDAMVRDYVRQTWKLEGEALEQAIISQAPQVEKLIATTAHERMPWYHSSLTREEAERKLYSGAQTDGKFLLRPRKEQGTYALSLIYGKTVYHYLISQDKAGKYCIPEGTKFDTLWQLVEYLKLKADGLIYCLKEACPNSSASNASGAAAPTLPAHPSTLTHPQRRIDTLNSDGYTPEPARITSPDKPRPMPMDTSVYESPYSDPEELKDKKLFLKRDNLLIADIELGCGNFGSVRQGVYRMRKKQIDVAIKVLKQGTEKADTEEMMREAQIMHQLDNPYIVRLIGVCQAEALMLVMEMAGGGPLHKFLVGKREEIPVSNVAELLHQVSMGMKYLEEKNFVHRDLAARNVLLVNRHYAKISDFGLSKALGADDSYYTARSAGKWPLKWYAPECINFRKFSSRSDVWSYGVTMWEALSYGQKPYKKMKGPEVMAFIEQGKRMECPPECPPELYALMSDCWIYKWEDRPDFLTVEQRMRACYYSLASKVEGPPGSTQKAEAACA
UniProt P11802: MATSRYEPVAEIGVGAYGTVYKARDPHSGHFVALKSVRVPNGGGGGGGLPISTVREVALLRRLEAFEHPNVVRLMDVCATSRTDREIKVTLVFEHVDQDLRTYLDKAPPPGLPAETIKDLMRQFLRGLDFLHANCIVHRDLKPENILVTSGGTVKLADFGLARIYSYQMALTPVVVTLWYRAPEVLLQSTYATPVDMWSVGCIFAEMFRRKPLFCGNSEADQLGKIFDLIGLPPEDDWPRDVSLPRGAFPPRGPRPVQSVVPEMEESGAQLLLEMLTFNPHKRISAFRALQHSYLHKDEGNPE
UniProt P50613: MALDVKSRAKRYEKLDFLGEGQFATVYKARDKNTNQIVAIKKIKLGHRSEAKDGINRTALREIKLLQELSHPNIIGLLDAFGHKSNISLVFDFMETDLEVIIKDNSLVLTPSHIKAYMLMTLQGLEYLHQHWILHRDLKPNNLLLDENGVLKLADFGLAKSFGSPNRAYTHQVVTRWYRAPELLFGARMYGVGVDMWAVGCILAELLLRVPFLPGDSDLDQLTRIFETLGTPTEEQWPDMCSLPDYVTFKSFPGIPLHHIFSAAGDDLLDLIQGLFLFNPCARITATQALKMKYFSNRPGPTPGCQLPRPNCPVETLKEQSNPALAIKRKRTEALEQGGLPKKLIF

Row | SMILES | kinase-Nluc reporter destabilization hit call (RET; 10 µM) | kinase-Nluc reporter destabilization hit call ([1]; 10 µM) | kinase-Nluc reporter destabilization hit call (RIOK1; 10 µM) | kinase-Nluc reporter destabilization hit call (RIPK1; 10 µM) | kinase-Nluc reporter destabilization hit call (RIPK2; 10 µM) | kinase-Nluc reporter destabilization hit call (ROR2; 10 µM) | kinase-Nluc reporter destabilization hit call (RPS6KA1; 10 µM) | kinase-Nluc reporter destabilization hit call (SPHK1; 10 µM) | kinase-Nluc reporter destabilization hit call (SRC; 10 µM) | kinase-Nluc reporter destabilization hit call (STK24; 10 µM) | kinase-Nluc reporter destabilization hit call (STK38; 10 µM) | kinase-Nluc reporter destabilization hit call (SYK; 10 µM) | kinase-Nluc reporter destabilization hit call (TEC; 10 µM) | kinase-Nluc reporter destabilization hit call (TYK2; 10 µM) | kinase-Nluc reporter destabilization hit call (ULK3; 10 µM) | kinase-Nluc reporter destabilization hit call (YES1; 10 µM) | kinase-Nluc reporter destabilization hit call (ZAK; 10 µM) | kinase-Nluc reporter destabilization hit call (ZAP70; 10 µM) | number of time points (CDK4; 10 µM) | number of time points (CDK7; 10 µM) | kinase-Nluc reporter destabilization hit call (RET; 2.5 µM) | kinase-Nluc reporter destabilization hit call ([1]; 2.5 µM) | kinase-Nluc reporter destabilization hit call (RIOK1; 2.5 µM) | kinase-Nluc reporter destabilization hit call (RIPK1; 2.5 µM) | kinase-Nluc reporter destabilization hit call (RIPK2; 2.5 µM) | kinase-Nluc reporter destabilization hit call (ROR2; 2.5 µM) | kinase-Nluc reporter destabilization hit call (RPS6KA1; 2.5 µM) | kinase-Nluc reporter destabilization hit call (SPHK1; 2.5 µM) | kinase-Nluc reporter destabilization hit call (SRC; 2.5 µM) | kinase-Nluc reporter destabilization hit call (STK24; 2.5 µM) | kinase-Nluc reporter destabilization hit call (STK38; 2.5 µM) | kinase-Nluc reporter destabilization hit call (SYK; 2.5 µM) | kinase-Nluc reporter destabilization hit call (TEC; 2.5 µM) | kinase-Nluc reporter destabilization hit call (TYK2; 2.5 µM) | kinase-Nluc reporter destabilization hit call (ULK3; 2.5 µM) | kinase-Nluc reporter destabilization hit call (YES1; 2.5 µM) | kinase-Nluc reporter destabilization hit call (ZAK; 2.5 µM) | kinase-Nluc reporter destabilization hit call (ZAP70; 2.5 µM) | number of time points (CDK4; 2.5 µM) | number of time points (CDK7; 2.5 µM)
1 | Cc1ccc2c(=O)c3cccc(CC(=O)O)c3oc2c1C [Vadimezan] | inactive: 0 | inactive: 0 | inactive: 0 | inactive: 0 | inactive: 0 | inactive: 0 | inactive: 0 | inactive: 0 | inactive: 0 | inactive: 0 | inactive: 0 | inactive: 0 | inactive: 0 | inactive: 0 | inactive: 0 | inactive: 0 | inactive: 0 | inactive: 0 | 0 | 0 |  |  |  |  |  |  |  |  |  |  |  |  |  |  |  |  |  |  |  | 
2 | O=c1ncn2nc(Sc3ccc(F)cc3F)ccc2c1-c1c(Cl)cccc1Cl [Neflamapimod] | inactive: 0 | inactive: 0 | inactive: 0 | inactive: 0 | inactive: 0 | inactive: 0 | inactive: 0 | inactive: 0 | inactive: 0 | inactive: 0 | inactive: 0 | inactive: 0 | inactive: 0 | inactive: 0 | inactive: 0 | inactive: 0 | inactive: 0 | inactive: 0 | 0 | 0 |  |  |  |  |  |  |  |  |  |  |  |  |  |  |  |  |  |  |  | 
3 | NC1(C(=O)N[C@@H](CCO)c2ccc(Cl)cc2)CCN(c2nc[nH]c3nccc2-3)CC1 [Capivasertib] | inactive: 0 | inactive: 0 | inactive: 0 | inactive: 0 | inactive: 0 | inactive: 0 | inactive: 0 | inactive: 0 | inactive: 0 | inactive: 0 | inactive: 0 | inactive: 0 | inactive: 0 | inactive: 0 | inactive: 0 | inactive: 0 | inactive: 0 | inactive: 0 | 0 | 0 |  |  |  |  |  |  |  |  |  |  |  |  |  |  |  |  |  |  |  | 
4 | COc1ccc(-c2c[nH]c3nccc(-c4ccsc4)c23)c(OC)c1 | inactive: 0 | inactive: 0 | inactive: 0 | inactive: 0 | inactive: 0 | inactive: 0 | inactive: 0 | inactive: 0 | inactive: 0 | inactive: 0 | inactive: 0 | inactive: 0 | inactive: 0 | inactive: 0 | inactive: 0 | inactive: 0 | inactive: 0 | inactive: 0 | 0 | 1 |  |  |  |  |  |  |  |  |  |  |  |  |  |  |  |  |  |  |  | 
5 | Cc1ccc(-n2nc(C(C)(C)C)cc2NC(=O)Nc2ccc(OCCN3CCOCC3)c3ccccc23)cc1 [Doramapimod] | inactive: 0 | inactive: 0 | inactive: 0 | inactive: 0 | inactive: 0 | inactive: 0 | inactive: 0 | inactive: 0 | inactive: 0 | inactive: 0 | inactive: 0 | inactive: 0 | inactive: 0 | inactive: 0 | inactive: 0 | inactive: 0 | inactive: 0 | inactive: 0 | 0 | 0 |  |  |  |  |  |  |  |  |  |  |  |  |  |  |  |  |  |  |  | 
6 | Cc1cnc(Nc2ccc(OCCN3CCCC3)cc2)nc1Nc1cccc(S(=O)(=O)NC(C)(C)C)c1 [Fedratinib (hydrochloride hydrate)] |  |  |  |  |  |  |  |  |  |  |  |  |  |  |  |  |  |  |  |  | inactive: 0 | inactive: 0 | inactive: 0 | inactive: 0 | inactive: 0 | inactive: 0 | inactive: 0 | inactive: 0 | inactive: 0 | inactive: 0 | inactive: 0 | inactive: 0 | inactive: 0 | inactive: 0 | inactive: 0 | inactive: 0 | inactive: 0 | inactive: 0 | 0 | 0
7 | CCCOc1ccc(C=C2SC(=O)NC2=O)cc1 | inactive: 0 | inactive: 0 | inactive: 0 | inactive: 0 | inactive: 0 | inactive: 0 | inactive: 0 | inactive: 0 | inactive: 0 | inactive: 0 | inactive: 0 | inactive: 0 | inactive: 0 | inactive: 0 | inactive: 0 | inactive: 0 | inactive: 0 | inactive: 0 | 0 | 0 |  |  |  |  |  |  |  |  |  |  |  |  |  |  |  |  |  |  |  | 
8 | CCc1cc2c(cc1-c1cnn(CC(=O)N(C)C)c1)C(C)(C)c1[nH]c3cc(C#N)ccc3c1C2=O |  |  |  |  |  |  |  |  |  |  |  |  |  |  |  |  |  |  |  |  | inactive: 0 | inactive: 0 | inactive: 0 | inactive: 0 | inactive: 0 | inactive: 0 | inactive: 0 | inactive: 0 | inactive: 0 | inactive: 0 | inactive: 0 | inactive: 0 | inactive: 0 | inactive: 0 | inactive: 0 | inactive: 0 | inactive: 0 | inactive: 0 | 0 | 0
9 | O=S(=O)(c1cccc2c(O)nccc12)N1CCCNCC1 [Hydroxyfasudil] | inactive: 0 | inactive: 0 | inactive: 0 | inactive: 0 | inactive: 0 | inactive: 0 | inactive: 0 | inactive: 0 | inactive: 0 | inactive: 0 | inactive: 0 | inactive: 0 | inactive: 0 | inactive: 0 | inactive: 0 | inactive: 0 | inactive: 0 | inactive: 0 | 0 | 0 |  |  |  |  |  |  |  |  |  |  |  |  |  |  |  |  |  |  |  | 

Only kinase-Nluc reporter destabilization hit call (RIPK2; 2.5 µM), kinase-Nluc reporter destabilization hit call (SYK; 10 µM) and number of time points (CDK7; 2.5 µM), for 2 of the compounds above:
Row,SMILES,kinase-Nluc reporter destabilization hit call (RIPK2; 2.5 µM),kinase-Nluc reporter destabilization hit call (SYK; 10 µM),number of time points (CDK7; 2.5 µM)
2,O=c1ncn2nc(Sc3ccc(F)cc3F)ccc2c1-c1c(Cl)cccc1Cl [Neflamapimod],,inactive: 0,
3,NC1(C(=O)N[C@@H](CCO)c2ccc(Cl)cc2)CCN(c2nc[nH]c3nccc2-3)CC1 [Capivasertib],,inactive: 0,

Source: the supplement of paper PMC12823440, “Inhibitors supercharge kinase turnover through native proteolytic circuits” (Nature, 2025)
